Experimental data from US10563263B2, “Genetic polymorphisms associated with statin response and cardiovascular diseases, methods of detection and uses thereof” (CELERA CORPORATION, priority 2010, dated 2020).
This continues a long series; more values of the same kind are listed elsewhere.

Tested on: CHD
Experiment: Meta-analysis of CARE and WOSCOPS combined, synergy index, CHD endpoint
Assay type: in vivo, human
Description: Tables 4-5 provide meta-analyses of CARE and WOSCOPS combined (2nd section of each table) for two endpoints (CHD and CVD) and three genetic models (dominant, recessive, and additive), as well as logistic regression analyses of CARE (3rd section of each table) and WOSCOPS (4th section of each table) individually.
Tables 12 and 17 provide results of meta-analysis of the CARE and WOSCOPS sample sets combined by direct genotyping and by imputing genotypes.
“P” indicates the p-value, and “P(R)” (or “P.R.”) indicates the p-value random effect. Both of these are p-values corresponding to a statistical test of whether the combined synergy index is equal to one but use different assumptions to derive the p-value. “P” is calculated using a fixed effects model, and “P(R)” is calculated using a random effects model.
“OR” indicates the odds ratio (synergy index) calculated from a fixed effects model, and “OR(R)” (or “OR.R.”) indicates the odds ratio (synergy index) calculated from a random effects model.

## CC[C@H](C)C(=O)O[C@H]1C[C@H](O)C=C2C=C[C@H](C)[C@H](CC[C@@H](O)C[C@@H](O)CC(=O)O)[C@H]21 [Pravastatin, pravastatin]
Marker rs2574, A1 C (non-ref), A2 G (ref)
  Meta-analysis OR: 1.53
Marker rs4773, A1 A (non-ref), A2 G (ref)
  Meta-analysis OR: 0.69
Marker rs7508, A1 G (non-ref), A2 A (ref)
  Meta-analysis OR: 1.48
Marker rs9857, A1 G (non-ref), A2 A (ref)
  Meta-analysis OR: 0.74
Marker rs9960, A1 A (non-ref), A2 G (ref)
  Meta-analysis OR: 1.47
Marker rs198460, A1 G (non-ref), A2 A (ref)
  Meta-analysis OR: 1.56
Marker rs198464, A1 G (non-ref), A2 A (ref)
  Meta-analysis OR: 1.57
Marker rs198476, A1 G (non-ref), A2 A (ref)
  Meta-analysis OR: 1.67
Marker rs208025, A1 A (non-ref), A2 G (ref)
  Meta-analysis OR: 1.41
Marker rs238250, A1 A (non-ref), A2 C (ref)
  Meta-analysis OR: 1.46
Marker rs251817, A1 A (non-ref), A2 G (ref)
  Meta-analysis OR: 2.19
Marker rs264122, A1 A (non-ref), A2 G (ref)
  Meta-analysis OR: 0.62
Marker rs271046, A1 A (non-ref), A2 G (ref)
  Meta-analysis OR: 0.57
Marker rs475420, A1 G (non-ref), A2 A (ref)
  Meta-analysis OR: 1.63
Marker rs494111, A1 G (non-ref), A2 A (ref)
  Meta-analysis OR: 0.57
Marker rs498657, A1 G (non-ref), A2 A (ref)
  Meta-analysis OR: 1.47
Marker rs581401, A1 A (non-ref), A2 G (ref)
  Meta-analysis OR: 0.59
Marker rs603940, A1 G (non-ref), A2 A (ref)
  Meta-analysis OR: 0.59
Marker rs619825, A1 G (non-ref), A2 A (ref)
  Meta-analysis OR: 0.56
Marker rs623400, A1 A (non-ref), A2 G (ref)
  Meta-analysis OR: 0.70
Marker rs623584, A1 A (non-ref), A2 G (ref)
  Meta-analysis OR: 0.59
Marker rs646749, A1 A (non-ref), A2 G (ref)
  Meta-analysis OR: 0.56
Marker rs675163, A1 C (non-ref), A2 A (ref)
  Meta-analysis OR: 0.67
Marker rs694780, A1 G (non-ref), A2 A (ref)
  Meta-analysis OR: 0.55
Marker rs892162, A1 G (non-ref), A2 A (ref)
  Meta-analysis OR: 0.60
Marker rs974950, A1 A (non-ref), A2 G (ref)
  Meta-analysis OR: 0.67
Marker rs996022, A1 C (non-ref), A2 A (ref)
  Meta-analysis OR: 0.57
Marker rs1003322, A1 A (non-ref), A2 C (ref)
  Meta-analysis OR: 1.51
Marker rs1009748, A1 A (non-ref), A2 G (ref)
  Meta-analysis OR: 1.37
Marker rs1015199, A1 G (non-ref), A2 A (ref)
  Meta-analysis OR: 1.72
Marker rs1045916, A1 G (non-ref), A2 A (ref)
  Meta-analysis OR: 0.74
Marker rs1068705, A1 G (non-ref), A2 A (ref)
  Meta-analysis OR: 0.66
Marker rs1129570, A1 C (non-ref), A2 A (ref)
  Meta-analysis OR: 1.42
Marker rs1136046, A1 A (non-ref), A2 G (ref)
  Meta-analysis OR: 1.48
Marker rs1155875, A1 G (non-ref), A2 A (ref)
  Meta-analysis OR: 0.77
Marker rs1190706, A1 A (non-ref), A2 C (ref)
  Meta-analysis OR: 0.67
Marker rs1266489, A1 A (non-ref), A2 G (ref)
  Meta-analysis OR: 0.67
Marker rs1336400, A1 A (non-ref), A2 G (ref)
  Meta-analysis OR: 1.60
Marker rs1344081, A1 G (non-ref), A2 A (ref)
  Meta-analysis OR: 1.45
Marker rs1352236, A1 A (non-ref), A2 G (ref)
  Meta-analysis OR: 0.44
Marker rs1439269, A1 A (non-ref), A2 G (ref)
  Meta-analysis OR: 1.39
Marker rs1450092, A1 G (non-ref), A2 A (ref)
  Meta-analysis OR: 0.69
Marker rs1505469, A1 G (non-ref), A2 A (ref)
  Meta-analysis OR: 1.50
Marker rs1524962, A1 A (non-ref), A2 G (ref)
  Meta-analysis OR: 0.72
Marker rs1531842, A1 A (non-ref), A2 C (ref)
  Meta-analysis OR: 0.68
Marker rs1566221, A1 G (non-ref), A2 A (ref)
  Meta-analysis OR: 0.56
Marker rs1727746, A1 A (non-ref), A2 G (ref)
  Meta-analysis OR: 1.47
Marker rs1798093, A1 G (non-ref), A2 A (ref)
  Meta-analysis OR: 1.75
Marker rs1942876, A1 A (non-ref), A2 G (ref)
  Meta-analysis OR: 0.56
Marker rs2011318, A1 A (non-ref), A2 G (ref)
  Meta-analysis OR: 0.64
Marker rs2060022, A1 G (non-ref), A2 A (ref)
  Meta-analysis OR: 0.64
Marker rs2108425, A1 A (non-ref), A2 G (ref)
  Meta-analysis OR: 0.63
Marker rs2110564, A1 A (non-ref), A2 C (ref)
  Meta-analysis OR: 0.66
Marker rs2113334, A1 A (non-ref), A2 G (ref)
  Meta-analysis OR: 0.41
Marker rs2327412, A1 G (non-ref), A2 A (ref)
  Meta-analysis OR: 1.37
Marker rs2505039, A1 A (non-ref), A2 G (ref)
  Meta-analysis OR: 0.76
Marker rs2588350, A1 A (non-ref), A2 G (ref)
  Meta-analysis OR: 0.72
Marker rs2616548, A1 G (non-ref), A2 A (ref)
  Meta-analysis OR: 1.57
Marker rs2616552, A1 A (non-ref), A2 C (ref)
  Meta-analysis OR: 1.42
Marker rs2648694, A1 A (non-ref), A2 G (ref)
  Meta-analysis OR: 1.98
Marker rs2655222, A1 A (non-ref), A2 G (ref)
  Meta-analysis OR: 0.29
Marker rs2657940, A1 A (non-ref), A2 G (ref)
  Meta-analysis OR: 1.40
Marker rs2748901, A1 G (non-ref), A2 A (ref)
  Meta-analysis OR: 1.58
Marker rs2993156, A1 A (non-ref), A2 G (ref)
  Meta-analysis OR: 0.66
Marker rs3763978, A1 G (non-ref), A2 C (ref)
  Meta-analysis OR: 0.75
Marker rs3800202, A1 A (non-ref), A2 G (ref)
  Meta-analysis OR: 0.48
Marker rs4038018, A1 G (non-ref), A2 A (ref)
  Meta-analysis OR: 0.65
Marker rs4240808, A1 A (non-ref), A2 G (ref)
  Meta-analysis OR: 0.61
Marker rs4242281, A1 A (non-ref), A2 C (ref)
  Meta-analysis OR: 1.93
Marker rs4251580, A1 A (non-ref), A2 G (ref)
  Meta-analysis OR: 0.69
Marker rs4420312, A1 A (non-ref), A2 G (ref)
  Meta-analysis OR: 0.66
Marker rs4472926, A1 G (non-ref), A2 A (ref)
  Meta-analysis OR: 0.66
Marker rs4660234, A1 A (non-ref), A2 G (ref)
  Meta-analysis OR: 1.56
Marker rs4686740, A1 A (non-ref), A2 G (ref)
  Meta-analysis OR: 1.55
Marker rs4787415, A1 A (non-ref), A2 G (ref)
  Meta-analysis OR: 0.60
Marker rs4807536, A1 A (non-ref), A2 G (ref)
  Meta-analysis OR: 2.00
Marker rs4836745, A1 A (non-ref), A2 G (ref)
  Meta-analysis OR: 0.68
Marker rs4870109, A1 A (non-ref), A2 G (ref)
  Meta-analysis OR: 1.86
Marker rs6040760, A1 G (non-ref), A2 A (ref)
  Meta-analysis OR: 1.47
Marker rs6427807, A1 C (non-ref), A2 A (ref)
  Meta-analysis OR: 0.68
Marker rs6435378, A1 A (non-ref), A2 G (ref)
  Meta-analysis OR: 0.67
Marker rs6474228, A1 A (non-ref), A2 G (ref)
  Meta-analysis OR: 1.54
Marker rs6539231, A1 A (non-ref), A2 G (ref)
  Meta-analysis OR: 0.65
Marker rs6563805, A1 A (non-ref), A2 G (ref)
  Meta-analysis OR: 0.65
Marker rs6585412, A1 A (non-ref), A2 G (ref)
  Meta-analysis OR: 1.53
Marker rs6685920, A1 A (non-ref), A2 G (ref)
  Meta-analysis OR: 1.60
Marker rs6742894, A1 G (non-ref), A2 A (ref)
  Meta-analysis OR: 1.53
Marker rs6746182, A1 A (non-ref), A2 G (ref)
  Meta-analysis OR: 1.49
Marker rs6848512, A1 G (non-ref), A2 A (ref)
  Meta-analysis OR: 0.66
Marker rs6998016, A1 A (non-ref), A2 G (ref)
  Meta-analysis OR: 3.99
Marker rs7018577, A1 A (non-ref), A2 G (ref)
  Meta-analysis OR: 1.50
Marker rs7067780, A1 A (non-ref), A2 G (ref)
  Meta-analysis OR: 1.53
Marker rs7070244, A1 G (non-ref), A2 A (ref)
  Meta-analysis OR: 1.45
Marker rs7078016, A1 C (non-ref), A2 A (ref)
  Meta-analysis OR: 1.54
Marker rs7222186, A1 A (non-ref), A2 G (ref)
  Meta-analysis OR: 0.64
Marker rs7276749, A1 A (non-ref), A2 C (ref)
  Meta-analysis OR: 0.46
Marker rs7305949, A1 G (non-ref), A2 A (ref)
  Meta-analysis OR: 2.22
